First the molecules themselves.
T1: FLAG-LIN28B (UniProt Q6ZN17)
T1 sequence: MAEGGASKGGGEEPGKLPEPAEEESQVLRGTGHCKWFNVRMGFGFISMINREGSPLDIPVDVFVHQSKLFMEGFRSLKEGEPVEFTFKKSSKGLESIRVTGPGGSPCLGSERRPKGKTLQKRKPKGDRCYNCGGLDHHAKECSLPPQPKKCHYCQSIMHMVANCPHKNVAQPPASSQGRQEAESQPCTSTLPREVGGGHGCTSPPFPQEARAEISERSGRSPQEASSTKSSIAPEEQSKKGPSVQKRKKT

By UniProt entry, the sequences of proteins in these tests, tags left out.
UniProt P51114: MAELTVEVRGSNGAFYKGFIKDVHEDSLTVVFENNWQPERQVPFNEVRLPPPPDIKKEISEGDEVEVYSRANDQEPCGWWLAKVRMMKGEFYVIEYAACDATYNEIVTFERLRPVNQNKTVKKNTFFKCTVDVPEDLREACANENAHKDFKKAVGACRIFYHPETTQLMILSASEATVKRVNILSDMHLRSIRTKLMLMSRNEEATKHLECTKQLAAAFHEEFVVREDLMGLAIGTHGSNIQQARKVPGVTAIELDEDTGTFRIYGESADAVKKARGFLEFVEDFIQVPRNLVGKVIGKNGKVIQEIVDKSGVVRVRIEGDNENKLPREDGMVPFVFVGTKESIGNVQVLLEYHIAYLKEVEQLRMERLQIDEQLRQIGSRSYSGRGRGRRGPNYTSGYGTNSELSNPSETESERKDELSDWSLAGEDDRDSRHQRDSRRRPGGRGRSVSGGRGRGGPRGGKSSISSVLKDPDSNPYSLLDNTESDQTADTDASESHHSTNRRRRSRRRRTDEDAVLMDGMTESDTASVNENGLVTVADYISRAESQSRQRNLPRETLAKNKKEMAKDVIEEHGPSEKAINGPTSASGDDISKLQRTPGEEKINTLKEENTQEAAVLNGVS
UniProt P08238: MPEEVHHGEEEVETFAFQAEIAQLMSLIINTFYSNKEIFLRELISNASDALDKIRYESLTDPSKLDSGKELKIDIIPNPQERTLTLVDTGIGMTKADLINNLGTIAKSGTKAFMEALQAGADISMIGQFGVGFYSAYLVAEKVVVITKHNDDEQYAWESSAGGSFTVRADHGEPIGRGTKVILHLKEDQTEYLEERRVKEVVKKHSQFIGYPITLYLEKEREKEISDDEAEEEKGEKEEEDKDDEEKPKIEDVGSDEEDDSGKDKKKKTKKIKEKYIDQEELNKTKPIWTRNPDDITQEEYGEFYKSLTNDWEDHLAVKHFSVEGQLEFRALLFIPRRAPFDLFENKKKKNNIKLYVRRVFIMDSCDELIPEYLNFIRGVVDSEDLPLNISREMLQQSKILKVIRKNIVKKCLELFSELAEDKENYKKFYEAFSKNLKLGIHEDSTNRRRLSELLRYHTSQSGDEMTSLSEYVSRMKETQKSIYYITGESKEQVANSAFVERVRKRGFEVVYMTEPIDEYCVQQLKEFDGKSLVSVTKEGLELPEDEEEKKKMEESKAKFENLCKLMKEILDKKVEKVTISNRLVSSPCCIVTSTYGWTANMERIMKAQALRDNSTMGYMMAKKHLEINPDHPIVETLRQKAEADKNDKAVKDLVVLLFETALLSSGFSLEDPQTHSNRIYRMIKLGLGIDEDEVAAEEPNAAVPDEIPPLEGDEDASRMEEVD
UniProt P09874: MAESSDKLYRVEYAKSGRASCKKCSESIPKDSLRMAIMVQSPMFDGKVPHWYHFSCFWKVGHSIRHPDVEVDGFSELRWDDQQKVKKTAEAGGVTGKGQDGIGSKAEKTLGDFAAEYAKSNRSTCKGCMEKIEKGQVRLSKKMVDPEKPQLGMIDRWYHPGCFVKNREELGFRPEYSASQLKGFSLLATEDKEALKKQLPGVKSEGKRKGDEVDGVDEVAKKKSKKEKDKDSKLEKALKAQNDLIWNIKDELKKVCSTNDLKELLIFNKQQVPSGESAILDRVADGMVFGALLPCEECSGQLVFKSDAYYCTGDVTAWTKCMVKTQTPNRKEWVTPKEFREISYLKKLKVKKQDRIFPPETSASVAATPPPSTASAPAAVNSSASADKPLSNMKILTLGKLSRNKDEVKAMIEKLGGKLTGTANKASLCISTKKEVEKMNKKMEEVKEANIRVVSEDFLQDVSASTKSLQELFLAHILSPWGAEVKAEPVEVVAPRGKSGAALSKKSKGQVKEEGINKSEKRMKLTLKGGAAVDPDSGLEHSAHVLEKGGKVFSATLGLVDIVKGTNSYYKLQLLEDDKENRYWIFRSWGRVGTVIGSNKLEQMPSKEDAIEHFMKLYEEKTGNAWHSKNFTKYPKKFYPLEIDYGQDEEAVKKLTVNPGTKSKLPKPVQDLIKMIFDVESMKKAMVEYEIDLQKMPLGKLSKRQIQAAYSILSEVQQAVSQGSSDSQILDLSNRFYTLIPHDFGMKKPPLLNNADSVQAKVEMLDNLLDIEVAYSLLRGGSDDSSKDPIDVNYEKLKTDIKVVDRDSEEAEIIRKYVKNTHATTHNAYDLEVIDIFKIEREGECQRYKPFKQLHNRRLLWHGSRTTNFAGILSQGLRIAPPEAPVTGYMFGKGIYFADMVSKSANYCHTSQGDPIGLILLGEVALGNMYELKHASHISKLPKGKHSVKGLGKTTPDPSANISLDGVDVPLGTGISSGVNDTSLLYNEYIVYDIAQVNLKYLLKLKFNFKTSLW

B1: HNRNPM (protein, UniProt P52272 1-730)
chain: MAAGVEAAAEVAATEIKMEEESGAPGVPSGNGAPGPKGEGERPAQNEKRKEKNIKRGGNRFEPYANPTKRYRAFITNIPFDVKWQSLKDLVKEKVGEVTYVELLMDAEGKSRGCAVVEFKMEESMKKAAEVLNKHSLSGRPLKVKEDPDGEHARRAMQKVMATTGGMGMGPGGPGMITIPPSILNNPNIPNEIIHALQAGRLGSTVFVANLDYKVGWKKLKEVFSMAGVVVRADILEDKDGKSRGIGTVTFEQSIEAVQAISMFNGQLLFDRPMHVKMDERALPKGDFFPPERPQQLPHGLGGIGMGLGPGGQPIDANHLNKGIGMGNIGPAGMGMEGIGFGINKMGGMEGPFGGGMENMGRFGSGMNMGRINEILSNALKRGEIIAKQGGGGGGGSVPGIERMGPGIDRLGGAGMERMGAGLGHGMDRVGSEIERMGLVMDRMGSVERMGSGIERMGPLGLDHMASSIERMGQTMERIGSGVERMGAGMGFGLERMAAPIDRVGQTIERMGSGVERMGPAIERMGLSMERMVPAGMGAGLERMGPVMDRMATGLERMGANNLERMGLERMGANSLERMGLERMGANSLERMGPAMGPALGAGIERMGLAMGGGGGASFDRAIEMERGNFGGSFAGSFGGAGGHAPGVARKACQIFVRNLPFDFTWKMLKDKFNECGHVLYADIKMENGKSKGCGVVKFESPEVAERACRMMNGMKLSGREIDVRIDRNA
B2: NUFIP2 (protein, UniProt Q7Z417 1-695)
chain: MEEKPGQPQPQHHHSHHHPHHHPQQQQQQPHHHHHYYFYNHSHNHHHHHHHQQPHQYLQHGAEGSPKAQPKPLKHEQKHTLQQHQETPKKKTGYGELNGNAGEREISLKNLSSDEATNPISRVLNGNQQVVDTSLKQTVKANTFGKAGIKTKNFIQKNSMDKKNGKSYENKSGENQSVDKSDTIPIPNGVVTNNSGYITNGYMGKGADNDGSGSESGYTTPKKRKARRNSAKGCENLNIVQDKIMQQETSVPTLKQGLETFKPDYSEQKGNRVDGSKPIWKYETGPGGTSRGKPAVGDMLRKSSDSKPGVSSKKFDDRPKGKHASAVASKEDSWTLFKPPPVFPVDNSSAKIVPKISYASKVKENLNKTIQNSSVSPTSSSSSSSSTGETQTQSSSRLSQVPMSALKSVTSANFSNGPVLAGTDGNVYPPGGQPLLTTAANTLTPISSGTDSVLQDMSLTSAAVEQIKTSLFIYPSNMQTMLLSTAQVDLPSQTDQQNLGDIFQNQWGLSFINEPSAGPETVTGKSSEHKVMEVTFQGEYPATLVSQGAEIIPSGTEHPVFPKAYELEKRTSPQVLGSILKSGTTSESGALSLEPSHIGDLQKADTSSQGALVFLSKDYEIESQNPLASPTNTLLGSAKEQRYQRGLERNDSWGSFDLRAAIVYHTKEMESIWNLQKQDPKRIITYNEAMDSPDQ
B3: interleukin enhancer-binding factor 3 (protein, UniProt Q12906 1-894)
chain: MRPMRIFVNDDRHVMAKHSSVYPTQEELEAVQNMVSHTERALKAVSDWIDEQEKGSSEQAESDNMDVPPEDDSKEGAGEQKTEHMTRTLRGVMRVGLVAKGLLLKGDLDLELVLLCKEKPTTALLDKVADNLAIQLAAVTEDKYEILQSVDDAAIVIKNTKEPPLSLTIHLTSPVVREEMEKVLAGETLSVNDPPDVLDRQKCLAALASLRHAKWFQARANGLKSCVIVIRVLRDLCTRVPTWGPLRGWPLELLCEKSIGTANRPMGAGEALRRVLECLASGIVMPDGSGIYDPCEKEATDAIGHLDRQQREDITQSAQHALRLAAFGQLHKVLGMDPLPSKMPKKPKNENPVDYTVQIPPSTTYAITPMKRPMEEDGEEKSPSKKKKKIQKKEEKAEPPQAMNALMRLNQLKPGLQYKLVSQTGPVHAPIFTMSVEVDGNSFEASGPSKKTAKLHVAVKVLQDMGLPTGAEGRDSSKGEDSAEETEAKPAVVAPAPVVEAVSTPSAAFPSDATAEQGPILTKHGKNPVMELNEKRRGLKYELISETGGSHDKRFVMEVEVDGQKFQGAGSNKKVAKAYAALAALEKLFPDTPLALDANKKKRAPVPVRGGPKFAAKPHNPGFGMGGPMHNEVPPPPNLRGRGRGGSIRGRGRGRGFGGANHGGYMNAGAGYGSYGYGGNSATAGYSQFYSNGGHSGNASGGGGGGGGGSSGYGSYYQGDNYNSPVPPKHAGKKQPHGGQQKPSYGSGYQSHQGQQQSYNQSPYSNYGPPQGKQKGYNHGQGSYSYSNSYNSPGGGGGSDYNYESKFNYSGSGGRSGGNSYGSGGASYNPGSHGGYGGGSGGGSSYQGKQGGYSQSNYNSPGSGQNYSGPPSSYQSSQGGYGRNADHSMNYQYR

Results are given in words; binding and its absence hold for the method and conditions named. In cells and extracts the contact can be indirect. Some results given as binding are weak or reduced against the parent protein; the word gives no strength. Sequences can lack the tags named with a protein.

In the experiment the target is T1, FLAG-LIN28B. Description: co-IP; FLAG-LIN28B transfected into HEK-293T; Pierce RIPA lysate; anti-FLAG M2 agarose beads overnight at 4°C; wash buffer with 200 mM NaCl; Western blot of target proteins. (In western blotting, separated proteins are transferred to a membrane and probed.)
Take FXR1 (from UniProt P51114 1-621): the binding result is reported as “binds”.
In the case of HSP90AB1 (from UniProt P08238 1-724), the binding result was “binds”.
Turning to PARP1 (from UniProt P09874 1-1014), the binding result was “binds”.
Consider B1, for which the binding result is recorded as “binds”.
The result for B2 reads “binds”; that for B3, “binds”.

For the origin of these results see publication PMC11290964.
